In patent EP0348725A2, “Species-specific epitode of chlamydia trachomatis and antibodies that recognize the same” (MILES INC., priority 1988, dated 1990):
Part of at least one peptide drawing is inferred or uncertain, most often the ends. Where a SMILES comes first, the peptide text is derived from it.

Test system: SSMAB-1
Test: competitive inhibition ELISA (peptide inhibits binding of SSMAB-1 to L₂-COMC ELISA antigen)
Set-up: species or system mouse
Conditions: YES = peptide capable of significantly reducing the ELISA signal (492 nm); peptide from 50 µM, nine four-fold serial dilutions; L₂-COMC coated plates

| SMILES | INHIBITION WITH ANTIBODY 32.1 |
| --- | --- |
| CC[C@H](C)[C@H](NC(=O)[C@@H](NC(=O)[C@@H]1CCCN1C(=O)[C@H](CC(N)=O)NC(=O)[C@H](CC(C)C)NC(=O)[C@@H](NC(=O)[C@@H](NC(=O)[C@@H](NC(=O)[C@H](CC(=O)O)NC(=O)[C@H](Cc1ccccc1)NC(=O)[C@@H](NC(=O)[C@@H](N)[C@@H](C)O)C(C)C)C(C)C)[C@@H](C)O)[C@@H](C)O)[C@@H](C)O)C(=O)N[C@@H](Cc1ccc(O)cc1)C(=O)N[C@@H](CS)C(=O)O [MOMP 291-302, TVFDVTTLNPTIYC] (H-TVFDVTTLNPTIYC-OH) | YES |
| CC[C@H](C)[C@H](NC(=O)[C@@H](NC(=O)[C@@H]1CCCN1C(=O)[C@H](CC(N)=O)NC(=O)[C@H](CC(C)C)NC(=O)[C@@H](NC(=O)[C@@H](NC(=O)[C@@H](NC(=O)[C@H](CC(=O)O)NC(=O)[C@H](Cc1ccccc1)NC(=O)[C@@H](NC(=O)[C@@H](N)[C@@H](C)O)C(C)C)C(C)C)[C@@H](C)O)[C@@H](C)O)[C@@H](C)O)C(=O)N[C@@H](C)C(=O)NCC(=O)N[C@@H](C)C(=O)NCC(=O)N[C@@H](CC(=O)O)C(=O)N[C@H](C(=O)N[C@@H](Cc1ccc(O)cc1)C(=O)N[C@@H](CS)C(=O)O)C(C)C [MOMP 291-308] (H-TVFDVTTLNPTIAGAGDVYC-OH) | YES |
